PubChem BioAssay AID1224828 | NIAID – 2016

Purpose: 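Knock-downs that increase or decrease LPS-induced p65 nuclear translocation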 (primary screen)
Cells: mouse RAW264.7 G9 macrophage reporter cells (GFP-p65, Tnf promoter-mCherry)
Reagent: siRNA pool against mouse genes, 100 nM
Duration: 2 days siRNA transfection, then 40 min LPS before fixation
Treatment: LPS (Salmonella minnesota R595) at 10 ng/ml
Measurement: 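Microscopy ratio of nuclear to perinuclear-ring GFP-p65 signal, scaled to the plate median; gene score is the average of two replicate robust z-scores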
Scale: p65 translocation robust z-score: higher = more nuclear NF-kappaB p65 after LPS than the plate median; nuclear/cytoplasmic p65 ratio: higher = more nuclear NF-kappaB p65
Call rule: 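Called active when z exceeds 3.3 or falls under -1.56 (median of Tlr4 controls), giving activity score of at least 50; no calls for control wells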
Calls: active = hit (p65 shift raised or lowered); inactive = no clear change
This is an unselected part of about 17,000 reagents. 762 of them (4.5%) count as active. 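Active calls include both raised and lowered p65 entry, mostly lowered; wells with fewer than 50 cells lack a z-score.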 Raw values are not corrected between plates.

| target gene | p65 translocation robust z-score | nuclear/cytoplasmic p65 ratio, rep 1 | nuclear/cytoplasmic p65 ratio, rep 2 | low cell count flag | Call |
| --- | --- | --- | --- | --- | --- |
| Sbf2 (SET binding factor 2) | 0.04 | 1.72 | 1.66 | enough cells to score | inactive |
| Il7 (interleukin 7) | 0.15 | 1.48 | 1.41 | enough cells to score | inactive |
| Prpf39 (pre-mRNA processing factor 39) | -0.93 | 1.26 | 1.11 | enough cells to score | inactive |
| Or5t18 (olfactory receptor family 5 subfamily T member 18) | 1.69 | 1.85 | 1.66 | enough cells to score | inactive |
| Six4 (sine oculis-related homeobox 4) | -1 | 1.36 | 1.46 | enough cells to score | inactive |
| Smco4 (single-pass membrane protein with coiled-coil domains 4) | -0.69 | 1.38 | 1.83 | enough cells to score | inactive |
| Cr1l (complement C3b/C4b receptor 1 like) | -0.53 | 1.48 | 1.72 | enough cells to score | inactive |
| Slc25a11 | 0.39 | 1.38 | 1.37 | enough cells to score | inactive |
| Sowaha (sosondowah ankyrin repeat domain family member A) | -0.2 | 1.33 | 1.52 | enough cells to score | inactive |
| Oog2 (oogenesin 2) | -1.18 | 1.28 | 1.11 | enough cells to score | inactive |
| Trim37 (tripartite motif-containing 37) | 0.44 | 1.55 | 1.59 | enough cells to score | inactive |
| Chd8 (chromodomain helicase DNA binding protein 8) | 3.75 | 1.68 | 2.13 | enough cells to score | active |
| Hnrnpr (heterogeneous nuclear ribonucleoprotein R) | 0.26 | 1.77 | 1.5 | enough cells to score | inactive |
| Dpysl2 (dihydropyrimidinase-like 2) | 0.04 | 1.41 | 1.37 | enough cells to score | inactive |
| Tfr2 (transferrin receptor 2) | 0.93 | 1.61 | 1.66 | enough cells to score | inactive |
| Ptgdr (prostaglandin D receptor) | -0.15 | 1.46 | 1.6 | enough cells to score | inactive |
| Pigp (phosphatidylinositol glycan anchor biosynthesis, class P) | -0.45 | 1.4 | 1.31 | enough cells to score | inactive |
| Vmn1r40 (vomeronasal 1 receptor 40) | 0.65 | 1.47 | 1.3 | enough cells to score | inactive |
| Hnf1b (HNF1 homeobox B) | -0.13 | 1.55 | 1.45 | enough cells to score | inactive |
| Sh3rf1 (SH3 domain containing ring finger 1) | 0.16 | 1.51 | 1.27 | enough cells to score | inactive |
| Col8a2 (collagen, type VIII, alpha 2) | – | 1.26 | 1.07 | fewer than 50 cells per well; well left out of scoring | inactive |
| Rtbdn (retbindin) | 0.75 | 1.68 | 1.98 | enough cells to score | inactive |
| Kdm4a (lysine (K)-specific demethylase 4A) | 0.58 | 1.69 | 1.46 | enough cells to score | inactive |
| Dhh (desert hedgehog) | 1.67 | 1.74 | 1.56 | enough cells to score | inactive |

5 of these entries, set out differently:
target gene	p65 translocation robust z-score	nuclear/cytoplasmic p65 ratio, rep 1	nuclear/cytoplasmic p65 ratio, rep 2	low cell count flag	Call
Oog2 (oogenesin 2)	-1.18	1.28	1.11	enough cells to score	inactive
Trim37 (tripartite motif-containing 37)	0.44	1.55	1.59	enough cells to score	inactive
Chd8 (chromodomain helicase DNA binding protein 8)	3.75	1.68	2.13	enough cells to score	active
Hnrnpr (heterogeneous nuclear ribonucleoprotein R)	0.26	1.77	1.5	enough cells to score	inactive
Dpysl2 (dihydropyrimidinase-like 2)	0.04	1.41	1.37	enough cells to score	inactive

More reagents:
| target gene | p65 translocation robust z-score | nuclear/cytoplasmic p65 ratio, rep 1 | nuclear/cytoplasmic p65 ratio, rep 2 | low cell count flag | Call |
| --- | --- | --- | --- | --- | --- |
| Usp11 (ubiquitin specific peptidase 11) | -0.19 | 1.51 | 1.46 | enough cells to score | inactive |
| Trp53inp2 | 0.76 | 1.61 | 1.58 | enough cells to score | inactive |
| Dlg3 (discs large MAGUK scaffold protein 3) | -0.68 | 1.68 | 1.3 | enough cells to score | inactive |
| Tmem255a (transmembrane protein 255A) | 1.94 | 1.92 | 1.76 | enough cells to score | inactive |
| Jchain (immunoglobulin joining chain) | -1.31 | 1.35 | 1.21 | enough cells to score | inactive |
| Paqr5 (progestin and adipoQ receptor family member V) | -0.77 | 1.38 | 1.61 | enough cells to score | inactive |
| Cyp4a10 (cytochrome P450, family 4, subfamily a, polypeptide 10) | -2.25 | 1.25 | 1.41 | enough cells to score | active |
| Akirin1 (akirin 1) | -0.67 | 1.33 | 1.32 | enough cells to score | inactive |
| Erap1 (endoplasmic reticulum aminopeptidase 1) | 0.77 | 1.75 | 1.72 | enough cells to score | inactive |
| Rtn2 (reticulon 2 (Z-band associated protein)) | – | 1.37 | 1.01 | fewer than 50 cells per well; well left out of scoring | inactive |
| Slc22a4 | 0.58 | 1.45 | 1.35 | enough cells to score | inactive |
| Klrg1 (killer cell lectin-like receptor subfamily G, member 1) | 0.17 | 1.52 | 1.39 | enough cells to score | inactive |
| Chst12 (carbohydrate sulfotransferase 12) | 0.03 | 1.6 | 1.79 | enough cells to score | inactive |
| Ifitm1 (interferon induced transmembrane protein 1) | -0.22 | 1.39 | 1.36 | enough cells to score | inactive |
| Tlr1 (toll-like receptor 1) | 1.61 | 2.14 | 1.44 | enough cells to score | inactive |
| Zbtb26 (zinc finger and BTB domain containing 26) | -0.28 | 0 | 1.49 | enough cells to score | inactive |
